# Assay results: publication PMC11789017, “Preventing inappropriate signals pre- and post-ligand perception by a toggle switch mechanism of ERECTA” (Proceedings of the National Academy of Sciences of the …, 2025)
# Results are given in words; binding and its absence hold for the method and conditions named. For some assays here: Binding seen in cells or lysates may run through a third protein. Some binding calls cover weakened binding; strength is not graded here. Tags and fused reporters may be left off the sequences shown.
# T1: PUB31 (U-box E3 ligase, in vitro assay of SI Appendix Fig. S7A) (UniProt Q9FHN9)
# T1 sequence: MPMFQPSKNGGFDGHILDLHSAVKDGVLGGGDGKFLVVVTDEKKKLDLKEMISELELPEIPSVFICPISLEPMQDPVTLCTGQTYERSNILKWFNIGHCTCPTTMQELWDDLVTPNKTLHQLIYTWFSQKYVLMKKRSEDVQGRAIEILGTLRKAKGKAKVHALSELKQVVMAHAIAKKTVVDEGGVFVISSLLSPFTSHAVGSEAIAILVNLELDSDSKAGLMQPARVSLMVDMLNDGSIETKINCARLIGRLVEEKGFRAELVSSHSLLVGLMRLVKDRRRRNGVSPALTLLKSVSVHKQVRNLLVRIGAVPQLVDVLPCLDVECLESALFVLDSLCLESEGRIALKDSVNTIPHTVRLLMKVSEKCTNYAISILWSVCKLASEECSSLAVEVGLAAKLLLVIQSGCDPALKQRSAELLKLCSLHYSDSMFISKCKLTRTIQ
# T2: PUB31-MYC (Arabidopsis protoplasts) (UniProt Q9FHN9)
# T2 sequence: T1 sequence
# B1: MBP-fused full-length ER cytoplasmic domain (MBP-ER_CD) (domain or fragment, Arabidopsis, UniProt Q42371 602-976, looked up)
# chain: CRPHNPPPFLDGSLDKPVTYSTPKLVILHMNMALHVYEDIMRMTENLSEKYIIGHGASSTVYKCVLKNCKPVAIKRLYSHNPQSMKQFETELEMLSSIKHRNLVSLQAYSLSHLGSLLFYDYLENGSLWDLLHGPTKKKTLDWDTRLKIAYGAAQGLAYLHHDCSPRIIHRDVKSSNILLDKDLEARLTDFGIAKSLCVSKSHTSTYVMGTIGYIDPEYARTSRLTEKSDVYSYGIVLLELLTRRKAVDDESNLHHLIMSKTGNNEVMEMADPDITSTCKDLGVVKKVFQLALLCTKRQPNDRPTMHQVTRVLGSFMLSEQPPAATDTSATLAGSCYVDEYANLKTPHSVNCSSMSASDAQLFLRFGQVISQNSE
# notes: ERECTA (ER) receptor kinase, Arabidopsis, cytoplasmic domain (juxtamembrane domain, kinase domain and C-terminal tail); source: recombinant, expressed and purified; not shown: MBP, N-terminal, kept
# B2: ER-HA (Arabidopsis protoplasts) (receptor, UniProt Q42371 25-976)
# chain: EEGATLLEIKKSFKDVNNVLYDWTTSPSSDYCVWRGVSCENVTFNVVALNLSDLNLDGEISPAIGDLKSLLSIDLRGNRLSGQIPDEIGDCSSLQNLDLSFNELSGDIPFSISKLKQLEQLILKNNQLIGPIPSTLSQIPNLKILDLAQNKLSGEIPRLIYWNEVLQYLGLRGNNLVGNISPDLCQLTGLWYFDVRNNSLTGSIPETIGNCTAFQVLDLSYNQLTGEIPFDIGFLQVATLSLQGNQLSGKIPSVIGLMQALAVLDLSGNLLSGSIPPILGNLTFTEKLYLHSNKLTGSIPPELGNMSKLHYLELNDNHLTGHIPPELGKLTDLFDLNVANNDLEGPIPDHLSSCTNLNSLNVHGNKFSGTIPRAFQKLESMTYLNLSSNNIKGPIPVELSRIGNLDTLDLSNNKINGIIPSSLGDLEHLLKMNLSRNHITGVVPGDFGNLRSIMEIDLSNNDISGPIPEELNQLQNIILLRLENNNLTGNVGSLANCLSLTVLNVSHNNLVGDIPKNNNFSRFSPDSFIGNPGLCGSWLNSPCHDSRRTVRVSISRAAILGIAIGGLVILLMVLIAACRPHNPPPFLDGSLDKPVTYSTPKLVILHMNMALHVYEDIMRMTENLSEKYIIGHGASSTVYKCVLKNCKPVAIKRLYSHNPQSMKQFETELEMLSSIKHRNLVSLQAYSLSHLGSLLFYDYLENGSLWDLLHGPTKKKTLDWDTRLKIAYGAAQGLAYLHHDCSPRIIHRDVKSSNILLDKDLEARLTDFGIAKSLCVSKSHTSTYVMGTIGYIDPEYARTSRLTEKSDVYSYGIVLLELLTRRKAVDDESNLHHLIMSKTGNNEVMEMADPDITSTCKDLGVVKKVFQLALLCTKRQPNDRPTMHQVTRVLGSFMLSEQPPAATDTSATLAGSCYVDEYANLKTPHSVNCSSMSASDAQLFLRFGQVISQNSE
# How the values were obtained:
# [1] = target: T1, PUB31 (U-box E3 ligase, in vitro assay of SI Appendix Fig. S7A); experiment: BLI; PUB31 with ER_CD and its C-terminal deletion version (SI Appendix, Fig. S7A); details not shown
# [2] = target: T2, PUB31-MYC (Arabidopsis protoplasts); experiment: co-IP; Arabidopsis protoplasts coexpressing HA-tagged ER variants and PUB31-MYC (SI Appendix, Fig. S7B)
binder,measurement,setting,value
B1,binding,[1],binds
B2,binding,[2],binds
